Test results taken from US9388202B2, “Luminescent probes for biological labeling and imaging, method for preparing same” (CENTRE NATIONAL DE LA RECHERCHE SCIENTIFIQUE, priority 2011, dated 2016).
Some of these results come from one statement about several compounds together. For at least one compound, name, drawing or mass did not settle the structure.

Legend:
[1] = Emission properties: luminescence lifetime and quantum luminescence yield in water and D2O; type: physicochemical
Description: Their optical luminescence properties, the luminescence lifetimes and the brightness properties are exceptional, with quantum yields of about 38% for Tb, 18% for Eu and lifetimes of the excited states of greater than 3 milliseconds for the Tb(I-3) and Tb(I-4) complexes.
By way of example, all of the absorption and emission properties of the terbium and europium complexes synthesized from the ligands (I-1) to (I-4) in accordance with the invention are summarized in Table 1 below:
The parameters φ and τ represent, respectively, the quantum luminescence yields and the luminescence lifetimes. They may be measured in water and in D2O.

[2] = Stability of terbium complexes (luminescence lifetime) in buffers with ligands capable of decomplexing the lanthanide ions; type: physicochemical
Description: By way of example, the stability of the terbium complexes synthesized from the ligands (I-1) to (I-4) in accordance with the invention is given in Table 2 below. Various buffers in the presence of ligands capable of decomplexing the lanthanide ions were tested. For comparative purposes, Table 2 also gives the stability of a terbium complex TbL4 of the prior art corresponding to the following formula: […]

SMILES | lifetimes of the excited states [1] | lifetimes in various aqueous media [2]
CCOP(=O)([O-])CN(Cc1cc(C#Cc2ccc(C#CCCCCC(=O)[O-])c3ccccc23)cc(CN(CP(=O)([O-])OCC)CP(=O)([O-])OCC)n1)CP(=O)([O-])OCC.[Na+].[Na+].[Tb+3] [Tb(I-4)] | greater than 3 milliseconds | greater than 3 milliseconds
CCOP(=O)([O-])CN(Cc1cc(C#Cc2ccc(C(=O)NCCCC(=O)[O-])c3ccccc23)cc(CN(CP(=O)([O-])OCC)CP(=O)([O-])OCC)n1)CP(=O)([O-])OCC.[Na+].[Na+].[Tb+3] [Tb(I-3)] | greater than 3 milliseconds | greater than 3 milliseconds
